Literature values as cited in patent publication US6984399B2 (Lek Pharmaceuticals d.d., priority 1999, dated 2006).
At least one compound was matched to its structure with a doubt left.

Settings: room temperature; cited from earlier work

CC(C)n1c(/C=C/C(O)CC(O)CC(=O)O)c(-c2ccc(F)cc2)c2ccccc21 (centres unmarked) [fluvastatin]
volume of water required to dissolve 20 mg: 10 mL

CC[C@H](C)C(=O)O[C@H]1C[C@H](O)C=C2C=C[C@H](C)[C@H](CC[C@@H](O)C[C@@H](O)CC(=O)O)[C@H]21 [pravastatin]
volume of water required to dissolve 20 mg: 0.07 mL
